# Results: the supplement of paper PMC10849652
# Amino acid sequences for entries named in this document (tags omitted). A change or cut given only in a name is not applied to a line headed by its entry.
# UniProt Q9BQG2: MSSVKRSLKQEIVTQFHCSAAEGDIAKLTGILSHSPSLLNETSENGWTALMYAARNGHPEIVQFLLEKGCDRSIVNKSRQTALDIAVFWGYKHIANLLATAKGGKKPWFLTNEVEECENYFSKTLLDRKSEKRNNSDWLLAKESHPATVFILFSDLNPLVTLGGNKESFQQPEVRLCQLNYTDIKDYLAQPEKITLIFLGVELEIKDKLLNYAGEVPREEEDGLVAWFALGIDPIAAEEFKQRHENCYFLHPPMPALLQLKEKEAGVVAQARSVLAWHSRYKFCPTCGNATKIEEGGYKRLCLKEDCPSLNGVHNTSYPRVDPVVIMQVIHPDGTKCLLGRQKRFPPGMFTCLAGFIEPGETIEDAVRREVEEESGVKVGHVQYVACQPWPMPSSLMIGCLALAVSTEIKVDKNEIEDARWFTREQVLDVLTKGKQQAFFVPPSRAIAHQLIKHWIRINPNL
# UniProt P49902: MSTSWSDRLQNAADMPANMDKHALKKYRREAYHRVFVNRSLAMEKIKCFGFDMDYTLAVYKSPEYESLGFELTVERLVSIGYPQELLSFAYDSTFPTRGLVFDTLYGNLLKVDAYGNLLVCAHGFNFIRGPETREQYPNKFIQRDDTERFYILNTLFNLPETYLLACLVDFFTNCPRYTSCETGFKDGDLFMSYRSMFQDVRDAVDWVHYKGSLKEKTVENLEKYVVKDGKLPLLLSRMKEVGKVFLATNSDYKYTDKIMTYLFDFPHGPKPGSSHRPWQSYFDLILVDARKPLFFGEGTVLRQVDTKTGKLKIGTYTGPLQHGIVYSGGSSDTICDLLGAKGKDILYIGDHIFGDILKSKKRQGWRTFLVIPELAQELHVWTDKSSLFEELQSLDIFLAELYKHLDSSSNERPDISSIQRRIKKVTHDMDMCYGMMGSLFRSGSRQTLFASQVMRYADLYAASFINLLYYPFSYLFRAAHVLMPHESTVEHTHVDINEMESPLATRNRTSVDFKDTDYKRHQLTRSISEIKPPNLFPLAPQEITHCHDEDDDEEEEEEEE
# UniProt Q9H0G5: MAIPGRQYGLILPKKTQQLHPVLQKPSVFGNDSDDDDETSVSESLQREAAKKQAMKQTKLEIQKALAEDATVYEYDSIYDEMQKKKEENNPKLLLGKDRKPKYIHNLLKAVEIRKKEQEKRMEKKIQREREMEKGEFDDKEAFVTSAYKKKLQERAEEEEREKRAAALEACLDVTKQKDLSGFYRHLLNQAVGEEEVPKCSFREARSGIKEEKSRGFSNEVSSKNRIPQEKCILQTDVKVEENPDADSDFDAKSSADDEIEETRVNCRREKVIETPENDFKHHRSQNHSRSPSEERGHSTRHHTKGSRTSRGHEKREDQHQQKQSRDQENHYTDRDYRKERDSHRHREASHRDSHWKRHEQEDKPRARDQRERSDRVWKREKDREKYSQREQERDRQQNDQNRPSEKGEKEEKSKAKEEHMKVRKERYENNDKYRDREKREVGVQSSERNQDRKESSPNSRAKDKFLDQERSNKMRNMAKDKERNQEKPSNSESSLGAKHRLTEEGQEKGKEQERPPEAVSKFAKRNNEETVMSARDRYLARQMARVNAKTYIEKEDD
# UniProt Q9NZJ9: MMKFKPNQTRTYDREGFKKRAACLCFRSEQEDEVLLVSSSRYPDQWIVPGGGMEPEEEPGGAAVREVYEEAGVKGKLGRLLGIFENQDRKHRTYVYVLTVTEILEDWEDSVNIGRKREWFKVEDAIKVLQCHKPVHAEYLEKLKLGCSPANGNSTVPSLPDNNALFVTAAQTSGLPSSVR
# UniProt Q96IY1: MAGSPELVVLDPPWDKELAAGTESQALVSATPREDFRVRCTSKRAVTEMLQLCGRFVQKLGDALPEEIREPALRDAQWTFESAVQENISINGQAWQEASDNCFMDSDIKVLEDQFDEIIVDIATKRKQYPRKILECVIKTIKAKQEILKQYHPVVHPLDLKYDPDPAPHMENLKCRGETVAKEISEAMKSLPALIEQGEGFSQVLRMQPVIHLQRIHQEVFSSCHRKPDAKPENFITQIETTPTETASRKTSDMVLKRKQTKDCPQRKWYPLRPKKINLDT
# UniProt Q5JPE7: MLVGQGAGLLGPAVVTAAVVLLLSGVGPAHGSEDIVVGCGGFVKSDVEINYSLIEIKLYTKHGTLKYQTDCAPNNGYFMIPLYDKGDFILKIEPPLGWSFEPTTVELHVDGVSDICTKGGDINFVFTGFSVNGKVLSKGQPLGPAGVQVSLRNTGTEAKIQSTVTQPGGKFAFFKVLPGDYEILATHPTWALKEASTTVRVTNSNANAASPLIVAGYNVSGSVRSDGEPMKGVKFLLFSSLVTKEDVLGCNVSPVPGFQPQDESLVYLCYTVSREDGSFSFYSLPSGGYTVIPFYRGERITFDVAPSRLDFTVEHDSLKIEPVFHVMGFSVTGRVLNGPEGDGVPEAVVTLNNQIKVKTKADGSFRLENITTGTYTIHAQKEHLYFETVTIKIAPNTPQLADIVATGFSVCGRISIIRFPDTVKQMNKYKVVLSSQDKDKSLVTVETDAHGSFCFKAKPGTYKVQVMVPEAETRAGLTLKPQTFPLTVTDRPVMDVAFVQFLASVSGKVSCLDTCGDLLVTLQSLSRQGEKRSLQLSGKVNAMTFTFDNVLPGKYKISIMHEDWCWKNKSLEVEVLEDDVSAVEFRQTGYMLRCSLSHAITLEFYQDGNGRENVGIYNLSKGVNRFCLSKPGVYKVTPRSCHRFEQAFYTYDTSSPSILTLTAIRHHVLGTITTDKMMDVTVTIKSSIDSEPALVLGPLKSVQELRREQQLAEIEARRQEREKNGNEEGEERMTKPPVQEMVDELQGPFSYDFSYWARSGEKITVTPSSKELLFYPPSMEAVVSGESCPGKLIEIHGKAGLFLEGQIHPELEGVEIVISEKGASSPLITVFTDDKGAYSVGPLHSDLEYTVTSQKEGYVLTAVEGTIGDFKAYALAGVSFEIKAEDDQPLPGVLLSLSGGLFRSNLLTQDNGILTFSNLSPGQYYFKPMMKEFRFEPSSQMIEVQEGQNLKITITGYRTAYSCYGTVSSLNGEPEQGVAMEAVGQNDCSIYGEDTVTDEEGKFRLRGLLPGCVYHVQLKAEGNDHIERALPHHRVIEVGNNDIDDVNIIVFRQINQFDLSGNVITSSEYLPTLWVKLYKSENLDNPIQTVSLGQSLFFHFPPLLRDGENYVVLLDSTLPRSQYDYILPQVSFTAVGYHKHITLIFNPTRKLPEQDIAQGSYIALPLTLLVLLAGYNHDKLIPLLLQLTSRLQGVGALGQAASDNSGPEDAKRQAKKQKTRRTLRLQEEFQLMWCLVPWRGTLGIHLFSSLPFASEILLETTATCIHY
# UniProt Q8NC60: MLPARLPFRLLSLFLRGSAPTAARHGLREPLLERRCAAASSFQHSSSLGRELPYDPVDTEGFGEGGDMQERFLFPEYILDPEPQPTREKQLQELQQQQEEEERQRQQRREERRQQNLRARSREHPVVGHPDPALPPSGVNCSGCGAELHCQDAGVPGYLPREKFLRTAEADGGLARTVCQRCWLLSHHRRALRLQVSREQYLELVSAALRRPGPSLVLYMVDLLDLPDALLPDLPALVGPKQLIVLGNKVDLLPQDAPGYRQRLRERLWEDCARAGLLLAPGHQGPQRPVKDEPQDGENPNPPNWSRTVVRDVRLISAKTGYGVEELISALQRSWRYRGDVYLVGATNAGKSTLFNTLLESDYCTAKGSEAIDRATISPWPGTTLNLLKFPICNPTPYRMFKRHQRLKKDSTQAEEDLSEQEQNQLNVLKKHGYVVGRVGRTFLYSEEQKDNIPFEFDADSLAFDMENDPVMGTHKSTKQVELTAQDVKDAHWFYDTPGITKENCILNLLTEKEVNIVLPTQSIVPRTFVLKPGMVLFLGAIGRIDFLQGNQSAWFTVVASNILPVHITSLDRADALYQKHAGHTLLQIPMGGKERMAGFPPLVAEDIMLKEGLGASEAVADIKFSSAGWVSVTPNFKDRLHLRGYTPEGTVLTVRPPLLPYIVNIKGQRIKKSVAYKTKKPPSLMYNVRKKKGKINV
# UniProt Q9NV35: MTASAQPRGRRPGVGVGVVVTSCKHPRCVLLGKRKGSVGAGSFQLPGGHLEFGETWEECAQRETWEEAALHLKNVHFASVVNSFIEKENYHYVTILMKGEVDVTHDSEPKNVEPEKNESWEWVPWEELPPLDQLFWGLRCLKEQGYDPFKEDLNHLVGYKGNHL
# UniProt Q8TCD5: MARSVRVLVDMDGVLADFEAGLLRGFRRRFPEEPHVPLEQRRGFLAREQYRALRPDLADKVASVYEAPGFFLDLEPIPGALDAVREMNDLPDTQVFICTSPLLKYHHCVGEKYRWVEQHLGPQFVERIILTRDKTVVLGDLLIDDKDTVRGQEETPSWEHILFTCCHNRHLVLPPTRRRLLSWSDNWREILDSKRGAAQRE
# UniProt Q15738: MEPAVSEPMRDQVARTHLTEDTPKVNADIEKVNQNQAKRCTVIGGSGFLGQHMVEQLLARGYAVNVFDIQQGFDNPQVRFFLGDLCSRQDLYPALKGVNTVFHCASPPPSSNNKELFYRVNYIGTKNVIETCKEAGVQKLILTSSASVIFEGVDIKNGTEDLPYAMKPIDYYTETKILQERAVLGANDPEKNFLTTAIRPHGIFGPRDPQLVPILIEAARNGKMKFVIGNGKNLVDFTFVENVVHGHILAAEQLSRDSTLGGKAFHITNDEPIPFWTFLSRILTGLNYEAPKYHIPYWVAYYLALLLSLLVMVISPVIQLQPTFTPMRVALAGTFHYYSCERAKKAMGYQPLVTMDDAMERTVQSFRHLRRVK
# UniProt Q08J23, whole entry, looked up: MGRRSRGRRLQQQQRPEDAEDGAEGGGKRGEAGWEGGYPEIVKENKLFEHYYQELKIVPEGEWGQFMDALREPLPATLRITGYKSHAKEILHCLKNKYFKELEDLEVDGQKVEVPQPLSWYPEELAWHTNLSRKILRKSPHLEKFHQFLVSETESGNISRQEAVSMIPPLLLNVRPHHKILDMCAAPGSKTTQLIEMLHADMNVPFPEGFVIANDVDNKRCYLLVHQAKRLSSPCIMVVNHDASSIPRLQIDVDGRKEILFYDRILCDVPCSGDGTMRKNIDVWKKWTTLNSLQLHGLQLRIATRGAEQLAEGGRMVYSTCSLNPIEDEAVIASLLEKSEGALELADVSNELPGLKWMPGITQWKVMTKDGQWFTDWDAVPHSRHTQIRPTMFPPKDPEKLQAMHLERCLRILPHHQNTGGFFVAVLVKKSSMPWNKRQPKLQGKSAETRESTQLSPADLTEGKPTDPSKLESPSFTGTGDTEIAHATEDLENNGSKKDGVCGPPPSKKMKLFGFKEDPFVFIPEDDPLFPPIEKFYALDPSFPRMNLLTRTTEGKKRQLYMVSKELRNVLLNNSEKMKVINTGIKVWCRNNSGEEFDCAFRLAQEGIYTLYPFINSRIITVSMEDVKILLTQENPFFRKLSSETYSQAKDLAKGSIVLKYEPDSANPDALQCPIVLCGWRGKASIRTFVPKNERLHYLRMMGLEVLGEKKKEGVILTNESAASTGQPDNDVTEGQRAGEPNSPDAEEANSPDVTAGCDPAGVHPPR
# UniProt Q5TFE4: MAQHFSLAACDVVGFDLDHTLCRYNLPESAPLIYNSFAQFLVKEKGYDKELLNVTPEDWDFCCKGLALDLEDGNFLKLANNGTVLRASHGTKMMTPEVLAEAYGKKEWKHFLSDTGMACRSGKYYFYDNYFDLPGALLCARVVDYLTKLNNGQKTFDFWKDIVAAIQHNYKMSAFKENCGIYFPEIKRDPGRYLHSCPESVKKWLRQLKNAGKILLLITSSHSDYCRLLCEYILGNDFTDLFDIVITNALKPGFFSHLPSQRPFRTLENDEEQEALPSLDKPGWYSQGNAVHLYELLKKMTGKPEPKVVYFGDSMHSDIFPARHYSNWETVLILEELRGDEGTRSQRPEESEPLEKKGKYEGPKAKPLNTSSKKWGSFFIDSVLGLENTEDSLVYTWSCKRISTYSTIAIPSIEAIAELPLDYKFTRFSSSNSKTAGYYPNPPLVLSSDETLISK
# UniProt Q9H857: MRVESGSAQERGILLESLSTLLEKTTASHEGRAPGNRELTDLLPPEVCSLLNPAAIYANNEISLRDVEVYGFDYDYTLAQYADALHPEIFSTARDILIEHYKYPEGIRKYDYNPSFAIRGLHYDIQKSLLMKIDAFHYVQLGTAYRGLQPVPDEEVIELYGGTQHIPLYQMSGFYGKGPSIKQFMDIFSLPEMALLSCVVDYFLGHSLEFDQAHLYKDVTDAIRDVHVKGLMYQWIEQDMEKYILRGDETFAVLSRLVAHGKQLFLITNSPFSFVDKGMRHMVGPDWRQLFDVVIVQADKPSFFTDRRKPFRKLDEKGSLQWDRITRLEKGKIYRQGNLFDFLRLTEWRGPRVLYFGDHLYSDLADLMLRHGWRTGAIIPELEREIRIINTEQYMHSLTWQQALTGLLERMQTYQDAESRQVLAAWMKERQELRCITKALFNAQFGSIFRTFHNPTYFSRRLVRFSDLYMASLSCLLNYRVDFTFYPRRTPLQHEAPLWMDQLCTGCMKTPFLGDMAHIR
# This is one part of the list.
# Compound: C[C@H](C1=CC=C(C=C1)C(=O)NC2=C3C=CNC3=NC=C2)N
# Assay: log2 fold change, soluble protein after heating vs DMSO (PISA); higher = thermal stabilisation; K562 lysate, 10 uM; active = over 0.2 and 3.5 SD of the protein, either way, in both replicates (recomputed)
# In short: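 Dounce homogenisation of K562 pellets in PBS pH 7.4 with 1 mM MgCl2 produced a crude extract, used at 1 mg/mL protein. Exposure to 10 μM compound lasted 30 min, and aliquots were then heated for 3 min across 48°C-58°C, pooled and brought to 0.5% NP-40 at 4°C. The supernatant after 21,000xg for 90 min was quantified by TMTpro 16plex LC-MS/MS with channel sums equalised. Duplicate values are given as log-two fold change in thermal stability relative to solvent controls.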
row,Target,log2 fold change
1,NUDT5 (UniProt Q9UKK9),active: -0.299
2,NOL12 (UniProt Q9UGY1),inactive: -0.002
3,NUBP1 (UniProt P53384),inactive: 0.033
4,NUMBL (UniProt Q9Y6R0),inactive: 0.018
5,NUDT12 (UniProt Q9BQG2),inactive: 0.002
6,NMNAT1 (UniProt Q9HAN9),inactive: -0.022
7,NT5C2 (UniProt P49902),inactive: 0.01
8,NSRP1 (UniProt Q9H0G5),inactive: 0.045
9,NUDT4 isoform 2 (UniProt Q9NZJ9),inactive: -0.055
10,NSL1 (UniProt Q96IY1),inactive: 0.001
11,NSFL1C isoform 5 (UniProt Q9UNZ2),inactive: -0.018
12,NSUN5 isoform 2 (UniProt Q96P11),inactive: 0.027
13,NRAS (UniProt P01111),inactive: 0.017
14,NOC3L (UniProt Q8WTT2),inactive: -0.052
15,NMD3 (UniProt Q96D46),inactive: -0.033
16,NSMCE4A (UniProt Q9NXX6),inactive: 0.029

row,Target,log2 fold change
1,NUDCD1 (UniProt Q96RS6),inactive: -0.046
2,NOMO2 (UniProt Q5JPE7),inactive: -0.014
3,NOA1 (UniProt Q8NC60),inactive: -0.282
4,NOP53 (UniProt Q9NZM5),inactive: 0.112
5,NOSIP (UniProt Q9Y314),inactive: 0.02
6,NUDCD2 (UniProt Q8WVJ2),inactive: -0.056
7,NSF (UniProt P46459),inactive: 0.033
8,NUMA1 (UniProt Q14980),inactive: 0.024
9,NME2 isoform 2 (UniProt P22392),inactive: -0.045
10,NUDT15 (UniProt Q9NV35),inactive: -0.127
11,NT5C (UniProt Q8TCD5),inactive: 0.162
12,NSDHL (UniProt Q15738),inactive: -0.058
13,NSUN2 (UniProt Q08J23),inactive: 0.072
14,NT5DC1 (UniProt Q5TFE4),inactive: -0.017
15,NRBP2 (UniProt Q9NSY0),inactive: 0
16,NT5DC2 isoform 2 (UniProt Q9H857),inactive: -0.018

# Shown bar-delimited: entries from further up
row | Target | log2 fold change
8 | NUMA1 (UniProt Q14980) | inactive: 0.024
15 | NRBP2 (UniProt Q9NSY0) | inactive: 0
